Consider 40 compounds from the supplement of paper PMC8866396.

Molecules are shown by their SMILES. ± gives the standard deviation of the averaged measurements. This is one part of the list. Repeats in this data set agree poorly, so a single value says little.

The experiment concerns IL-6-GFP PC-9GR. The experiment is described as follows: IL-6-GFP fluorescence relative to DMSO control (fraction of control); higher = more IL-6-GFP expression. The conditions noted are these: compound concentration: 10 uM; treatment time: 48 h. The protocol: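 IL-6-GFP-overexpressing PC-9 and PC-9GR EGFR-mutant lung cancer cells (3000 cells/well, 96-well) were treated for 48 h with each compound of the Selleck L2000 library at 10 uM. IL-6-GFP fluorescence was read on a high-content screening system, and viability by CCK-8 absorbance on a parallel plate set. Each value was normalised as compound well / DMSO control well; two independent replicates.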
The compound `O=C([O-])Cc1ccccc1Nc1c(Cl)cccc1Cl.[K+]` [Diclofenac Potassium] returned an IL-6-GFP fluorescence of 1 ± 0.021.

`CCC1(O)C(=O)OCc2c1cc1n(c2=O)Cc2cc3c(CN(C)C)c(O)ccc3nc2-1.Cl` (stereo not given) [Topotecan HCl] showed an IL-6-GFP fluorescence of 1.71 ± 0.22.

Compound `CC(=O)O.CCNC(=O)C1CCCN1C(=O)C(CCCNC(=N)N)NC(=O)C(CC(C)C)NC(=O)C(CC(C)C)NC(=O)C(Cc1ccc(O)cc1)NC(=O)C(CO)NC(=O)C(Cc1c[nH]c2ccccc12)NC(=O)C(Cc1c[nH]cn1)NC(=O)C1CCC(=O)N1` (stereo not given) [Leuprolide Acetate] had an IL-6-GFP fluorescence of 1.08 ± 0.39.

Compound `O=C(Nc1ccc(O)cc1)c1ccccc1O` [Osalmid] showed an IL-6-GFP fluorescence of 0.877 ± 0.29.

Turning to `CC1CC2C3CCC4=CC(=O)C=CC4(C)C3(F)C(O)CC2(C)C1C(=O)CO` (stereo not given) [Desoximetasone], the IL-6-GFP fluorescence was determined as 0.892 ± 0.076.

`CCCCC1C(=O)N(c2ccccc2)N(c2ccccc2)C1=O` [Phenylbutazone] gave an IL-6-GFP fluorescence of 0.677 ± 0.36.

For `CC(C)C1C(=O)NC(CCCNC(=N)N)C(=O)NCC(=O)NC(CC(=O)O)C(=O)NC(Cc2ccccc2)C(=O)N1C.O=C(O)C(F)(F)F` (stereo not given), the IL-6-GFP fluorescence was determined as 0.833 ± 0.17.

Compound `COc1ccc2cc1Oc1ccc(cc1)CC1c3cc(c(OC)cc3CCN1C)Oc1c(O)c(OC)cc3c1C(C2)N(C)CC3` (single isomer, unassigned; (+)) [(+)-Fangchinoline] returned an IL-6-GFP fluorescence of 0.89819 ± 4.1e-05.

Compound `CC(=O)Oc1cccc2c1C(=O)c1c(OC(C)=O)cc(C(=O)O)cc1C2=O` [Diacerein] displayed an IL-6-GFP fluorescence of 0.715 ± 0.049.

`Cc1coc2c1C(=O)C(=O)c1c-2ccc2c1CCCC2(C)C` [Tanshinone IIA] displayed an IL-6-GFP fluorescence of 0.945 ± 0.061.

As to `CC(C)Cn1cnc2c(N)nc3ccccc3c21` [Imiquimod], the IL-6-GFP fluorescence came out at 1.07 ± 0.16.

For the compound `COc1cc(C2Oc3cc(C4Oc5cc(O)cc(O)c5C(=O)C4O)ccc3OC2CO)ccc1O` (stereo not given) [Silibinin], the IL-6-GFP fluorescence was found to be 0.719 ± 0.34.

`COc1cc(N2CCC(N3CCN(C)CC3)CC2)ccc1Nc1ncc(Cl)c(Nc2ccccc2P(C)(C)=O)n1` registered an IL-6-GFP fluorescence of 0.419 ± 0.066.

`CC(C(=O)[O-])c1cccc(Oc2ccccc2)c1.CC(C(=O)[O-])c1cccc(Oc2ccccc2)c1.[Ca+2]` (stereo not given) [Fenoprofen Calcium] showed an IL-6-GFP fluorescence of 0.805 ± 0.1.

Compound `CC(C(=O)O)c1ccc2c(c1)CC(=O)c1ccccc1S2` (stereo not given) [Zaltoprofen] yielded an IL-6-GFP fluorescence of 0.891 ± 0.073.

As to `CC(=O)OC(C)OC(=O)C(C)c1ccc(-c2ccccc2)c(F)c1` (stereo not given) [Flurbiprofen Axetil], the IL-6-GFP fluorescence worked out at 0.862 ± 0.017.

For `CCc1nc(C(N)=O)c(Nc2ccc(N3CCC(N4CCN(C)CC4)CC3)c(OC)c2)nc1NC1CCOCC1` [Gilteritinib (ASP2215)], the IL-6-GFP fluorescence came to 1.12 ± 0.2.

`CNCc1ccc(-c2[nH]c3cc(F)cc4c3c2CCNC4=O)cc1.O=P(O)(O)O` yielded an IL-6-GFP fluorescence of 1.75 ± 0.031.

Compound `CNC(=O)c1cc(Oc2ccc(NC(=O)Nc3ccc(Cl)c(C(F)(F)F)c3)cc2)ccn1` [Sorafenib] showed an IL-6-GFP fluorescence of 0.872 ± 0.078.

Consider `CC(=O)OC[C@H]1O[C@@H]([S-])[C@H](OC(C)=O)[C@@H](OC(C)=O)[C@@H]1OC(C)=O.CCP(CC)CC.[Au+]` [Auranofin], for which the IL-6-GFP fluorescence is 0.509 ± 0.3.

`C=CC1CC1(NC(=O)C1CC(Oc2ncc(OC)c3ccc(Cl)cc23)CN1C(=O)C(NC(=O)OC(C)(C)C)C(C)(C)C)C(=O)NS(=O)(=O)C1CC1` (stereo not given) [Asunaprevir]: the IL-6-GFP fluorescence is 0.726 ± 0.035.

With `COc1c2occc2c(OC)c2c(=O)cc(C)oc12` [Khellin], the IL-6-GFP fluorescence worked out at 0.761 ± 0.098.

Consider `COc1c2occc2cc2ccc(=O)oc12` [Methoxsalen], for which the IL-6-GFP fluorescence was determined as 0.69 ± 0.31.

Compound `CC(C)c1nc(CN(C)C(=O)NC(CCN2CCOCC2)C(=O)NC(CCC(Cc2ccccc2)NC(=O)OCc2cncs2)Cc2ccccc2)cs1` (stereo not given) [Cobicistat (GS-9350)] registered an IL-6-GFP fluorescence of 0.917 ± 0.11.

`COc1cc2c3cc1Oc1c(OC)c(OC)cc4c1C(Cc1ccc(O)c(c1)Oc1ccc(cc1)CC3N(C)CC2)N(C)CC4.Cl.Cl` (stereo not given) [Berbamine (dihydrochloride)] had an IL-6-GFP fluorescence of 0.951 ± 0.045.

For the compound `CC(C)=CCCC(C)(OC1OC(CO)C(O)C(O)C1O)C1CCC2(C)C1C(O)CC1C3(C)CCC(O)C(C)(C)C3C(OC3OC(CO)C(O)C(O)C3O)CC12C` (stereo not given) [Ginsenoside Rg1], the IL-6-GFP fluorescence stood at 0.885 ± 0.014.

As for `Cc1c(-c2ccc(O)cc2)n(Cc2ccc(OCCN3CCCCCC3)cc2)c2ccc(O)cc12.Cl` [Bazedoxifene HCl], the IL-6-GFP fluorescence was found to be 0.853 ± 0.16.

For the compound `COc1c(OC2OC(CO)C(O)C(O)C2O)cc2c(c1OC)-c1ccc(SC)c(=O)cc1C(NC(C)=O)CC2` (stereo not given) [Thiocolchicoside], the IL-6-GFP fluorescence is 0.239 ± 0.0069.

`CC(=O)OCC1OC(n2ccc(=O)[nH]c2=O)C(OC(C)=O)C1OC(C)=O` (stereo not given) [uridine triacetate]: the IL-6-GFP fluorescence amounted to 0.808 ± 0.031.

As to `CC(=O)OC1(C(C)=O)CCC2C3C=C(C)C4=CC(=O)CCC4(C)C3CCC21C` (stereo not given) [Megestrol Acetate], the IL-6-GFP fluorescence amounted to 0.932 ± 0.079.

On to `CN1C(C(=O)Nc2ccccn2)=C(O)c2sccc2S1(=O)=O` [Tenoxicam], for which the IL-6-GFP fluorescence was found to be 0.868 ± 0.2.

In the case of `COc1cccc2c1C(=O)c1c(O)c3c(c(O)c1C2=O)CC(O)(C(C)=O)CC3OC1CC(N)C(O)C(C)O1.Cl` (stereo not given) [Daunorubicin HCl], the IL-6-GFP fluorescence was 0.423 ± 0.15.

Take `CCN(CC)CCNC(=O)c1c(C)[nH]c(/C=C2\C(=O)Nc3ccc(F)cc32)c1C.O=C(O)CC(O)C(=O)O` [Sunitinib Malate]: the IL-6-GFP fluorescence was determined as 1.57 ± 0.19.

Take `CCN1CCN(Cc2ccc(Nc3ncc(F)c(-c4cc(F)c5nc(C)n(C(C)C)c5c4)n3)nc2)CC1.CS(=O)(=O)O`: the IL-6-GFP fluorescence is 1.12 ± 0.17.

The compound `NC1CCCCC1N.O=C([O-])C(=O)[O-].[Pt+2]` (stereo not given) [Oxaliplatin] showed an IL-6-GFP fluorescence of 0.862 ± 0.05.

As for `CC(C)c1nc(N(C)S(C)(=O)=O)nc(-c2ccc(F)cc2)c1/C=C/C(O)CC(O)CC(=O)O` (stereo not given) [Rosuvastatin], the IL-6-GFP fluorescence was found to be 1 ± 0.089.

`O=C(OCC1OC(OC(=O)c2cc(O)c(O)c(OC(=O)c3cc(O)c(O)c(O)c3)c2)C(OC(=O)c2cc(O)c(O)c(OC(=O)c3cc(O)c(O)c(O)c3)c2)C(OC(=O)c2cc(O)c(O)c(OC(=O)c3cc(O)c(O)c(O)c3)c2)C1OC(=O)c1cc(O)c(O)c(OC(=O)c2cc(O)c(O)c(O)c2)c1)c1cc(O)c(O)c(OC(=O)c2cc(O)c(O)c(O)c2)c1` (stereo not given) [Tannic acid] yielded an IL-6-GFP fluorescence of 0.8053 ± 0.008.

In turn, `COc1cc2c(cc1OC)C1CC(OC(=O)C(N)C(C)C)C(CC(C)C)CN1CC2.Cc1ccc(S(=O)(=O)O)cc1.Cc1ccc(S(=O)(=O)O)cc1` (stereo not given) [Valbenazine tosylate] came in with an IL-6-GFP fluorescence of 2.49 ± 0.05.

`CCS(=O)(=O)N1CC(CC#N)(n2cc(-c3ncnc4[nH]ccc34)cn2)C1.O=P(O)(O)O` [Baricitinib phosphate] displayed an IL-6-GFP fluorescence of 0.824 ± 0.059.

`CCC(=O)OC1(C(=O)SCF)C(C)CC2C3CC(F)C4=CC(=O)C=CC4(C)C3(F)C(O)CC21C` (stereo not given) [Fluticasone propionate] displayed an IL-6-GFP fluorescence of 0.792 ± 0.39.
